Experimental data taken from paper PMC12540712.
Results are given in words; binding and its absence hold for the method and conditions named. In cells and extracts the contact can be indirect. Some entries that bind do so weakly or less than the wild type. For some assays here: Tags and fused reporters may be left off the sequences shown. Blank lines part the entries; values can stand above or below the molecule they belong to.

Amino acid sequences for entries named in this document (tags omitted).
UniProt Q16531: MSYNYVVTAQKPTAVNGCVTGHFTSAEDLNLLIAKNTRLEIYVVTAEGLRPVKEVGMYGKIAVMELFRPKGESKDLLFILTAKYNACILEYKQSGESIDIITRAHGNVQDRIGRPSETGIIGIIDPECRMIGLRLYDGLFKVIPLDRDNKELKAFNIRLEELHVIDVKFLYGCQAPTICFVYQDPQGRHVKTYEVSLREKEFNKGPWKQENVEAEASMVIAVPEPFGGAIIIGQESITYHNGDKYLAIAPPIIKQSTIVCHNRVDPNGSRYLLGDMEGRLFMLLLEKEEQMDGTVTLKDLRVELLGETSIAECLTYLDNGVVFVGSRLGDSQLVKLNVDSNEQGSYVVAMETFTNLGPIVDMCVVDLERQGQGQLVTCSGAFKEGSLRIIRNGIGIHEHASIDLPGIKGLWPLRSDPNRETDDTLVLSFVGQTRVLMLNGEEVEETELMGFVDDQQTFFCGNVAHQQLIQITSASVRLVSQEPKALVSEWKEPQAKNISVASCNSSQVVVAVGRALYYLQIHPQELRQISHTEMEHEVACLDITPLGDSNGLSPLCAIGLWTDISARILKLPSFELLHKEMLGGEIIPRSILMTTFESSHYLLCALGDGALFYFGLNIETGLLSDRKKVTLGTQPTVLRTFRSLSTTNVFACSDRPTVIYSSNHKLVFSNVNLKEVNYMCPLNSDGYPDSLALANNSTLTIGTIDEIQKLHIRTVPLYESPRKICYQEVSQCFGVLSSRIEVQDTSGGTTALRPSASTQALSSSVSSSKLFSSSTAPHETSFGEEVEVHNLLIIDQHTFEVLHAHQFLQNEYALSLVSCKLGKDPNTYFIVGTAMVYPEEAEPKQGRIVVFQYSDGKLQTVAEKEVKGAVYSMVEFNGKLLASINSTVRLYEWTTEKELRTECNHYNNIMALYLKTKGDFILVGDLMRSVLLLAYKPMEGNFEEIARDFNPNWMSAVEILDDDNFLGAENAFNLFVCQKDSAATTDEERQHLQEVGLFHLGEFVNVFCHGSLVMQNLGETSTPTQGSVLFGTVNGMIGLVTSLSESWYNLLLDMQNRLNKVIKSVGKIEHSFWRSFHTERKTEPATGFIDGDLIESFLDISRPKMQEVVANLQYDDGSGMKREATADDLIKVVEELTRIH

Experiments:
[1] = biological target: T1, endogenous And-1 (human (endogenous in HEK293T)) (UniProt O75717); assay: co-IP; endogenous And-1 in HEK293T cells, with or without UVB; protein A/G beads coupled with antibody, 4 °C overnight; 20 mM Tris-HCl pH 8.0, 100 mM NaCl, 1 mM EDTA, 0.5% NP-40, 10 mM NaF
T1 sequence: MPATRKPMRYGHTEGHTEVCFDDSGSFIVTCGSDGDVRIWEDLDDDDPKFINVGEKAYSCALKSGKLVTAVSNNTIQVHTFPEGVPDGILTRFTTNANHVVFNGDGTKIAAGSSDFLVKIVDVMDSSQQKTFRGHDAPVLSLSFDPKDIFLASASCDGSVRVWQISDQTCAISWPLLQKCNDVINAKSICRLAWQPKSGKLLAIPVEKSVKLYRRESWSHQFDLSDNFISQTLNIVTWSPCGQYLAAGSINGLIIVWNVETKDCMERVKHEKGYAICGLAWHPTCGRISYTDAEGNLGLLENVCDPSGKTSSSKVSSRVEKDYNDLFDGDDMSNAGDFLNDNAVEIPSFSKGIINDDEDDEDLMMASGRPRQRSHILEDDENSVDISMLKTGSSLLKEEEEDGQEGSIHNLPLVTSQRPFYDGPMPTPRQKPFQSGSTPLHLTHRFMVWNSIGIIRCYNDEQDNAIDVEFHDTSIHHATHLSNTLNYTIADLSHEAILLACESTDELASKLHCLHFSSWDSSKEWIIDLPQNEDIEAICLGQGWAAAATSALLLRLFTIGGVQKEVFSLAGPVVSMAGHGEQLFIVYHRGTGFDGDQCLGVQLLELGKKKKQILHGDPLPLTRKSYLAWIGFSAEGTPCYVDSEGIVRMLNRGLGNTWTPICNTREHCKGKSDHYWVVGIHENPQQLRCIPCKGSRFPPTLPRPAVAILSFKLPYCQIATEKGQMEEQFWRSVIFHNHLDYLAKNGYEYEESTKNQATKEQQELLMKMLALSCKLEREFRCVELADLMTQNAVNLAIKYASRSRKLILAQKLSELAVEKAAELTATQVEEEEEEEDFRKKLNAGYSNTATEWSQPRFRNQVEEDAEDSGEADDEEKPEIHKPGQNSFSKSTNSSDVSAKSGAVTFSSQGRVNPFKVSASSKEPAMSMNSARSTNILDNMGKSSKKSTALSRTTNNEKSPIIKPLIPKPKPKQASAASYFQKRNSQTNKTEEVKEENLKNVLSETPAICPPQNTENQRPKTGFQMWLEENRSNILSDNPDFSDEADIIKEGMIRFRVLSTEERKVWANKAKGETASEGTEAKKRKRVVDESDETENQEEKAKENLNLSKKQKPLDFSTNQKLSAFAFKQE

[2] = biological target: T2, FLAG-And-1, full-length And-1 (FL, 1–1129) (human) (UniProt O75717); assay: co-IP; FLAG-IP on Anti-FLAG-M2 affinity beads overnight from HEK293T cells expressing FLAG-And-1 or truncated mutants, with or without UVB; 20 mM Tris-HCl pH 8.0, 100 mM NaCl, 1 mM EDTA, 0.5% NP-40, 10 mM NaF
T2 sequence: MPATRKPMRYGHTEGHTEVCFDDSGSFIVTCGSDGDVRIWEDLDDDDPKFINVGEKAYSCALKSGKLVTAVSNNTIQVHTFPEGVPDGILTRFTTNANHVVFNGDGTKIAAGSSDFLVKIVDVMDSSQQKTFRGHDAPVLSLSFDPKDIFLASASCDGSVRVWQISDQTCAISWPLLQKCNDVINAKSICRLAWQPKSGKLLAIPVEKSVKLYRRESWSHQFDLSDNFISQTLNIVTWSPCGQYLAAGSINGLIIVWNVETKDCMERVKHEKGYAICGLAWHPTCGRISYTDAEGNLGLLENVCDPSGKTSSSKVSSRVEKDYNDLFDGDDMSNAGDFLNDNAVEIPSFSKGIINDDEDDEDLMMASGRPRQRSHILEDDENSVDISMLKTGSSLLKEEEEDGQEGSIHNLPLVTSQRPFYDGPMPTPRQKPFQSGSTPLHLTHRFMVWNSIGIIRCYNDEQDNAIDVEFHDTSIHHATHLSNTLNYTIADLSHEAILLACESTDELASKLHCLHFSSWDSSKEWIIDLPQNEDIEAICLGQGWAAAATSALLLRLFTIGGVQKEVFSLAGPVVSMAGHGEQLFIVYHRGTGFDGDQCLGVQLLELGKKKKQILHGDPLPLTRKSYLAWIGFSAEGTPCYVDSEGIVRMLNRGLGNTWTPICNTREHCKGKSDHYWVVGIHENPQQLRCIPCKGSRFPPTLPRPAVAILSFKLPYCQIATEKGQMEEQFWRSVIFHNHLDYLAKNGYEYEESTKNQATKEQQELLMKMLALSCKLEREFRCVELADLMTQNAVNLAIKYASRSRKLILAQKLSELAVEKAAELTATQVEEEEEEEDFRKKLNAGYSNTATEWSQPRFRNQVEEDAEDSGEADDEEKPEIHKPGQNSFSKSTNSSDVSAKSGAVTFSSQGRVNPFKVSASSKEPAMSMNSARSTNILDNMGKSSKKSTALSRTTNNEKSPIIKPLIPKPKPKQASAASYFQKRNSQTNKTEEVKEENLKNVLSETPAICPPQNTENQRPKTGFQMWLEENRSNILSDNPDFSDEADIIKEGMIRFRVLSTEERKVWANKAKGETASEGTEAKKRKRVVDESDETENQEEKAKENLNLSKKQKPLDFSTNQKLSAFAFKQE

[3] = biological target: T3, And-1 (form used in the co-IP with p66 not shown) (human) (UniProt O75717); assay: co-IP; And-1 and p66; set-up shown only in Supplementary Fig. 2F
T3 sequence: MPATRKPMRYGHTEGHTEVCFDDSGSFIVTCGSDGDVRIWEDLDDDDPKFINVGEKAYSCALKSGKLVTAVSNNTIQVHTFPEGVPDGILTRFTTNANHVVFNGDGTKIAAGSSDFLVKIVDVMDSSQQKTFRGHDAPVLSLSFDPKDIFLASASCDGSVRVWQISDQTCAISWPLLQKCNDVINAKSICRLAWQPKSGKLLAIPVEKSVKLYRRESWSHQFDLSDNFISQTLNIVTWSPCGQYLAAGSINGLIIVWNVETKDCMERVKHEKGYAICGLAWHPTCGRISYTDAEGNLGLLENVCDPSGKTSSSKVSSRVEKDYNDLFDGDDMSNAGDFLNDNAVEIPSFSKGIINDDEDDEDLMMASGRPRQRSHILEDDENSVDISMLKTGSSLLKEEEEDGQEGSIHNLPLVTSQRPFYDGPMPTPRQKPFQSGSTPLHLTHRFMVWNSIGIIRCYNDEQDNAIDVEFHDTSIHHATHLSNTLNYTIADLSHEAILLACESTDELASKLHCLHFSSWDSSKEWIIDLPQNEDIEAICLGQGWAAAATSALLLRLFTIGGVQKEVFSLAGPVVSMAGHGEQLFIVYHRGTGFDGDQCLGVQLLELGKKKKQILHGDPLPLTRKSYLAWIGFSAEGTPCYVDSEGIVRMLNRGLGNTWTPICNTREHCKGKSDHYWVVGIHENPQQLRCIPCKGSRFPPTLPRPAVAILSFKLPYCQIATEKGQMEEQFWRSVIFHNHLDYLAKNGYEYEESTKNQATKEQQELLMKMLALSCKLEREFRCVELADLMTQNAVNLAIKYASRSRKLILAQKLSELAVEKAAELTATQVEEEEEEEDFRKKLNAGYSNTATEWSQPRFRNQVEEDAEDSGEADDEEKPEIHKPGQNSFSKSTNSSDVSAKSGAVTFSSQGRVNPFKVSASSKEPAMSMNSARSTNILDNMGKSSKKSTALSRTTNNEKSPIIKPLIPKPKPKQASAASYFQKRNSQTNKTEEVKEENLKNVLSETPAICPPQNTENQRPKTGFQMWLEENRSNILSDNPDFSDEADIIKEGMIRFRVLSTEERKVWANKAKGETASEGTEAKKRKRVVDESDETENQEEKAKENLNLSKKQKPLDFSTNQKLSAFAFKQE

[4] = biological target: T4, GST-HMG (And-1 HMG domain) (human) (UniProt O75717); assay: co-IP; GST-IP from HEK293T cells co-transfected with FLAG-SepB and GST-HMG for 40 h; without UVB, or UVB with pretreatment with the ATR inhibitor VE-821 for 6 h
T4 sequence: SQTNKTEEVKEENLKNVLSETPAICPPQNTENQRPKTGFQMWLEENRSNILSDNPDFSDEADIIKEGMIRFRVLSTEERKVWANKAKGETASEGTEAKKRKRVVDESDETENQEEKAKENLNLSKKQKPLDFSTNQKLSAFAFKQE

[5] = biological target: T4, GST-HMG (And-1 HMG domain) (human); assay: co-IP; GST-IP from HEK293T cells co-transfected with SepB (WT or T826A) and GST-HMG for 40 h, harvested 1 h after UVB 100 mJ/cm2, no ATR inhibitor

- binding [3]: binds
B1: p66 (POLD3/p66) (protein, UniProt Q15054 1-466)
chain: MADQLYLENIDEFVTDQNKIVTYKWLSYTLGVHVNQAKQMLYDYVERKRKENSGAQLHVTYLVSGSLIQNGHSCHKVAVVREDKLEAVKSKLAVTASIHVYSIQKAMLKDSGPLFNTDYDILKSNLQNCSKFSAIQCAAAVPRAPAESSSSSKKFEQSHLHMSSETQANNELTTNGHGPPASKQVSQQPKGIMGMFASKAAAKTQETNKETKTEAKEVTNASAAGNKAPGKGNMMSNFFGKAAMNKFKVNLDSEQAVKEEKIVEQPTVSVTEPKLATPAGLKKSSKKAEPVKVLQKEKKRGKRVALSDDETKETENMRKKRRRIKLPESDSSEDEVFPDSPGAYEAESPSPPPPPSPPLEPVPKTEPEPPSVKSSSGENKRKRKRVLKSKTYLDGEGCIVTEKVYESESCTDSEEELNMKTSSVHRPPAMTVKKEPREERKGPKKGTAALGKANRQVSITGFFQRK

- binding [5]: binds
B3: SepB domain with T826A mutation (domain or fragment, UniProt O75717 330-984)
chain: DDMSNAGDFLNDNAVEIPSFSKGIINDDEDDEDLMMASGRPRQRSHILEDDENSVDISMLKTGSSLLKEEEEDGQEGSIHNLPLVTSQRPFYDGPMPTPRQKPFQSGSTPLHLTHRFMVWNSIGIIRCYNDEQDNAIDVEFHDTSIHHATHLSNTLNYTIADLSHEAILLACESTDELASKLHCLHFSSWDSSKEWIIDLPQNEDIEAICLGQGWAAAATSALLLRLFTIGGVQKEVFSLAGPVVSMAGHGEQLFIVYHRGTGFDGDQCLGVQLLELGKKKKQILHGDPLPLTRKSYLAWIGFSAEGTPCYVDSEGIVRMLNRGLGNTWTPICNTREHCKGKSDHYWVVGIHENPQQLRCIPCKGSRFPPTLPRPAVAILSFKLPYCQIATEKGQMEEQFWRSVIFHNHLDYLAKNGYEYEESTKNQATKEQQELLMKMLALSCKLEREFRCVELADLMTQNAVNLAIKYASRSRKLILAQKLSELAVEKAAELTAAQVEEEEEEEDFRKKLNAGYSNTATEWSQPRFRNQVEEDAEDSGEADDEEKPEIHKPGQNSFSKSTNSSDVSAKSGAVTFSSQGRVNPFKVSASSKEPAMSMNSARSTNILDNMGKSSKKSTALSRTTNNEKSPIIKPLIPKPKPKQASAASYFQKRNS

The remaining lines, values behind:

Molecule: DDB1 (from UniProt Q16531 1-1140)
- binding [1]: binds
- binding [2]: binds

B2: FLAG-And-1 SepB domain (330–984) (domain or fragment, UniProt O75717 330-984)
chain: DDMSNAGDFLNDNAVEIPSFSKGIINDDEDDEDLMMASGRPRQRSHILEDDENSVDISMLKTGSSLLKEEEEDGQEGSIHNLPLVTSQRPFYDGPMPTPRQKPFQSGSTPLHLTHRFMVWNSIGIIRCYNDEQDNAIDVEFHDTSIHHATHLSNTLNYTIADLSHEAILLACESTDELASKLHCLHFSSWDSSKEWIIDLPQNEDIEAICLGQGWAAAATSALLLRLFTIGGVQKEVFSLAGPVVSMAGHGEQLFIVYHRGTGFDGDQCLGVQLLELGKKKKQILHGDPLPLTRKSYLAWIGFSAEGTPCYVDSEGIVRMLNRGLGNTWTPICNTREHCKGKSDHYWVVGIHENPQQLRCIPCKGSRFPPTLPRPAVAILSFKLPYCQIATEKGQMEEQFWRSVIFHNHLDYLAKNGYEYEESTKNQATKEQQELLMKMLALSCKLEREFRCVELADLMTQNAVNLAIKYASRSRKLILAQKLSELAVEKAAELTATQVEEEEEEEDFRKKLNAGYSNTATEWSQPRFRNQVEEDAEDSGEADDEEKPEIHKPGQNSFSKSTNSSDVSAKSGAVTFSSQGRVNPFKVSASSKEPAMSMNSARSTNILDNMGKSSKKSTALSRTTNNEKSPIIKPLIPKPKPKQASAASYFQKRNS
- binding [4]: binds
